This assay has as its target BAK (human (endogenous in HeLa)) (UniProt Q16611). The assay can be described thus: affinity purification with mass spectrometry.

Chains of the proteins cited; added tags and fusions are not shown.
UniProt Q16611, whole entry: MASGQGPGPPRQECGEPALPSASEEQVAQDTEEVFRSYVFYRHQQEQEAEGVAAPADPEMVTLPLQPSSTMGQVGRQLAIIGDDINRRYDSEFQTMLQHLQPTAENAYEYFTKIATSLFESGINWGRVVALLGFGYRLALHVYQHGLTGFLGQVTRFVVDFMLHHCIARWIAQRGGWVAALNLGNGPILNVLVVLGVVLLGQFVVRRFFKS

These are yes or no findings as the source states them, for the method shown. In cells and extracts the contact can be indirect. Here binding means that the protein was enriched with, or labelled near, the bait; the list need not be complete.

B1: OmpA of Chlamydia trachomatis serovar L2, made by the bacteria during infection of HeLa cells (protein, UniProt P06597 23-394)
chain: LPVGNPAEPSLMIDGILWEGFGGDPCDPCTTWCDAISMRMGYYGDFVFDRVLQTDVNKEFQMGAKPTTATGNAAAPSTCTARENPAYGRHMQDAEMFTNAAYMALNIWDRFDVFCTLGATSGYLKGNSASFNLVGLFGDNENHATVSDSKLVPNMSLDQSVVELYTDTTFAWSAGARAALWECGCATLGASFQYAQSKPKVEELNVLCNAAEFTINKPKGYVGQEFPLDLKAGTDGVTGTKDASIDYHEWQASLALSYRLNMFTPYIGVKWSRASFDADTIRIAQPKSATTVFDVTTLNPTIAGAGDVKASAEGQLGDTMQIVSLQLNKMKSRKSCGIAVGTTIVDADKYAVTVETRLIDERAAHVNAQFRF
With B1, the binding entry was “binds”.

The record behind these values is publication doi:10.1101/2025.06.02.657351.
